In PMC4653036:
The exact form of at least one protein or probe is not confirmed. Results from cells or extracts need not show a direct contact.

Test system: TCF7 + AF1q (MLLT11)
Experiment: EMSA supershift
Details: MCF10a nuclear extract 5 ug, poly(dI-dC) 50 ng, anti-AF1q and anti-TCF7 antibodies; 10 ul: 5 ug nuclear extract, 1X binding buffer (Signosis kit), 50 ng poly(dI-dC), 20 ng probe, 30 min room temperature; 6% PAGE in 0.5X TBE; pH and salt not given; protein in an extract; label: Alexa 488

Sequence: CTTTTCCTTTGAGGCCTGCCTCAA (double strand) [CD44 promoter region probe (TCF7/LEF1 motif)]
- binding result: binds
